These are yes or no findings as the source states them, for the method shown. Some entries that bind do so weakly or less than the wild type.
What was measured:
[1] = target: VEGF-Trap (chimeric protein of VEGFR-1 domain 2 and VEGFR-2 domain 3 fused to Fc) (UniProt P17948); assay: solid phase ELISA, VEGF/PIGF variant immobilised, VEGF-trap titrated
[2] = target: VEGF-Trap (chimeric protein of VEGFR-1 domain 2 and VEGFR-2 domain 3 fused to Fc) (UniProt P17948); assay: solid phase ELISA with VEGF-trap

Chains of the proteins cited; added tags and fusions are not shown. Lines headed by an entry give the natural chain unless they say otherwise; changes in a name come on top.
UniProt P17948: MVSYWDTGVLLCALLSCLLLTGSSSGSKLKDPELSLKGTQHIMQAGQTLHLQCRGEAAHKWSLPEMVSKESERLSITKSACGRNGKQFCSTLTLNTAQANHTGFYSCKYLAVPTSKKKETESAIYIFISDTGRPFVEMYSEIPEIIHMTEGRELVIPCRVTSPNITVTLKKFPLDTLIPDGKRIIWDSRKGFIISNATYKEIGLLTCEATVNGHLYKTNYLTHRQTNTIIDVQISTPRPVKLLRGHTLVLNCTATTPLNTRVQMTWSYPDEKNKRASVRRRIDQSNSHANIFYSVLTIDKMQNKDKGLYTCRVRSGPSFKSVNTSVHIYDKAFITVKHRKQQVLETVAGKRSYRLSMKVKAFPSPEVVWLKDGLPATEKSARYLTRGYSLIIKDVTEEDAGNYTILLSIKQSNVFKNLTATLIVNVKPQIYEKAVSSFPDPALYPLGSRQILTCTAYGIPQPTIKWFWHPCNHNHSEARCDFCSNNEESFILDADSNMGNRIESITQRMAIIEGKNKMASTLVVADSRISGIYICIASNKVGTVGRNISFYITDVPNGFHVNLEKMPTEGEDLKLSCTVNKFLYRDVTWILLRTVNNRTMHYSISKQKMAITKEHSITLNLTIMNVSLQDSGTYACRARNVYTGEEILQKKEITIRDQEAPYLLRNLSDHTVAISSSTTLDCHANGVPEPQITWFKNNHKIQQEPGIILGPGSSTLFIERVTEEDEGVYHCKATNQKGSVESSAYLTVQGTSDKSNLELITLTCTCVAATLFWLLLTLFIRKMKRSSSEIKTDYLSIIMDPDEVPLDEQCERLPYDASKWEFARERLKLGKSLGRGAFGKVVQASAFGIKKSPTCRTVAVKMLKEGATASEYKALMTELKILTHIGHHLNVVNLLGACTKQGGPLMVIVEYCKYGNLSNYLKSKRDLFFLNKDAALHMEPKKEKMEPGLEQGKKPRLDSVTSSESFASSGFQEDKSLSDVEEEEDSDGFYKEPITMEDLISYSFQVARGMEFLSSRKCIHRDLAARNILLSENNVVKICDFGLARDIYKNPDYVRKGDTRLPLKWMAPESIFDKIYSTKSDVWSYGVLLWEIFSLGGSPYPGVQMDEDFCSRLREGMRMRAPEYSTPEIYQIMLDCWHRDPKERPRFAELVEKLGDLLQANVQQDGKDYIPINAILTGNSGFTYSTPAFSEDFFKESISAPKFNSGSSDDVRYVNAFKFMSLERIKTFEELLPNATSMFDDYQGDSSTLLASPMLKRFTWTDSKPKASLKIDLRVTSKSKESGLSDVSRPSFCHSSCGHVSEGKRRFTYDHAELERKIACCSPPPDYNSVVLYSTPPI

binding [1]	binding [2]	Binder
binds	binds	monomeric PIGF (moPIGF) (ligand, UniProt P49763-2 19-149, looked up, not shown: small tags and cut ends) LPAVPPQQWALSAGNGSSEVEVVPFQEVWGRSYCRALERLVDVVSEYPSEVEHMFSPSCVSLLRCTGCCGDENLHCVPVETANVTMQLLKIRSGDRPSYVELTFSQHVRCECRPLREKMKPERCGDAVPRR
binds	binds	single chain PIGF dimer (scPIGF) (ligand, not shown: small tags and cut ends) TASLPAVPPQQWALSAGNGSSEVEVVPFQEVWGRSYCRALERLVDVVSEYPSEVEHMFSPSCVSLLRCTGCCGDENLHCVPVETANVTMQLLKIRSGDRPSYVELTFSQHVRCECRPLREKMKPERCGDAVPRRGSTSGSGKSSEGKGLPAVPPQQWALSAGNGSSEVEVVPFQEVWGRSYCRALERLVDVVSEYPSEVEHMFSPSCVSLLRCTGCCGDENLHCVPVETANVTMQLLKIRSGDRPSYVELTFSQHVRCECRPLREKMKPERCGDAVPRRGST

— patent US20230119290A1 (UNIVERSIT T ZU K LN, published 2023)
